{"sequences": {"note": "Chains of the proteins cited; added tags and fusions are not shown. Residues count along the entry.", "UniProt P05067, 672-711 limits assumed, species assumed": "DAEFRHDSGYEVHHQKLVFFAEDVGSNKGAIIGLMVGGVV"}, "source": "patent US9328078B2", "about": "“Benzofurazan anti-amyloid compounds and methods” (Treventis Corporation, priority 2012, dated 2016)", "molecular_target": "Aβ40 (Homo sapiens, UniProt P05067)", "assay": "kinetic ThT assay for Aβ aggregation", "format": "biochemical", "details": "compound 5 μm; DMSO control at 80 hr = 0% inhibition; parenthesis = compound 1027", "procedure": "Aβ40 (1.0 mg) was pre-treated in a 1.5 mL microfuge tube with HFIP (1 mL) and sonicated for 20 min to disassemble any pre-formed Aβ aggregates. The HFIP was removed with a stream of argon and the Aβ dissolved in Tris base (5.8 mL, 20 mM, pH˜10). The pH was adjusted to 7.4 with concentrated HCl (˜10 μL) and the solution filtered using a syringe filter (0.2 μm) before being used.\nThe kinetic ThT assay for AP aggregation is similar to that of Chalifour et al (Chalifour et al, 2003, J. Biol. Chem. 278:34874-81). Briefly, pre-treated Aβ40 or Aβ42 (40 μM in 20 mM Tris, pH 7.4) was diluted with an equal volume of 8 μM Thioflavin T (ThT) in Tris (20 mM, pH 7.4, 300 mM NaCl). […] Plates were covered with clear polystyrene lids and incubated at 37° C. in a Tecan Genios microplate reader.\nFluorescence readings (λex=450 nm, λem=480 nm) were taken every 15 min., after first shaking at high intensity for 15 s and allowing to settle for 10 s before each reading. Active compounds attenuated the increase in fluorescence over time that occurred in controls. In FIGS. 1-7, the time this procedure was performed extended to 80 hours (rightmost part of X-axis), at which point fluorescence increase generally reached an asymptote. […] By repeating this procedure over several concentrations, a […] (IC50) can be measured, as is given in the table below for some compounds. […]", "note": "Several values for one entry are separate records, joined by “and”; a condition that tells them apart may be missing. Equal entries are not always repeated. The name of at least one read-out is uncertain.", "data": [{"compound": "O=C(c1ccccc1)N1CCN(c2ccc([N+](=O)[O-])c(Nc3ccccc3)c2)CC1", "note": "[compound 1027, reference compound]", "values": [{"measurement": "% inhib Aβ 40 (5 μm)", "value": "36% (4×) and 34% (3×)"}]}]}
